According to paper PMC12254500:
Results are given in words; binding and its absence hold for the method and conditions named. Binding seen in cells or lysates may run through a third protein. Some results given as binding are weak or reduced against the parent protein; the word gives no strength. For some of these results: Where a sequence is shown, tags or fusion partners need not be part of it.

Amino acid sequences for entries named in this document (tags omitted).
UniProt Q9UHY1: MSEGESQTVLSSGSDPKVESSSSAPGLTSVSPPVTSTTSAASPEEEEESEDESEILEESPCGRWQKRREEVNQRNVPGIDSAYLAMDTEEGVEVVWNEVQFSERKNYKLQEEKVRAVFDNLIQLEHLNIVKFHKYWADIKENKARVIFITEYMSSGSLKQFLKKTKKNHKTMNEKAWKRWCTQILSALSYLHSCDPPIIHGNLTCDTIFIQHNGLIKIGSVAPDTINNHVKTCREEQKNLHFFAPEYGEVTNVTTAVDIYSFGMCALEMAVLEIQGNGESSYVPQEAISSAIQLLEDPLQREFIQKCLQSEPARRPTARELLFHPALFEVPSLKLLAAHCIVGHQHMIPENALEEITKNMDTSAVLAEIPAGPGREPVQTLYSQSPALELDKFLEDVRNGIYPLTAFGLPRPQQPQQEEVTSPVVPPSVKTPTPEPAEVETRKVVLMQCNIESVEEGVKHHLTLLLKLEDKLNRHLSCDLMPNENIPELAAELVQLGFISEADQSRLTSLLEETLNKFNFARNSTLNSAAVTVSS
UniProt Q9UN81: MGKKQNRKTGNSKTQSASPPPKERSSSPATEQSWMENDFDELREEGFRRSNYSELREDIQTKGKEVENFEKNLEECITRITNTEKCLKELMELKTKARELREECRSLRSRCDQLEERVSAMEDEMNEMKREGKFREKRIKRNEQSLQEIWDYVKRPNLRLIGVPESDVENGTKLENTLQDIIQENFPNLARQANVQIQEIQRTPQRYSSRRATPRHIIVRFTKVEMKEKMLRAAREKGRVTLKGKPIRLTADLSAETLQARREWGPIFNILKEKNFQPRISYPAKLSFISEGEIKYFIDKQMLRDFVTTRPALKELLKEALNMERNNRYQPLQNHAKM
UniProt Q13283: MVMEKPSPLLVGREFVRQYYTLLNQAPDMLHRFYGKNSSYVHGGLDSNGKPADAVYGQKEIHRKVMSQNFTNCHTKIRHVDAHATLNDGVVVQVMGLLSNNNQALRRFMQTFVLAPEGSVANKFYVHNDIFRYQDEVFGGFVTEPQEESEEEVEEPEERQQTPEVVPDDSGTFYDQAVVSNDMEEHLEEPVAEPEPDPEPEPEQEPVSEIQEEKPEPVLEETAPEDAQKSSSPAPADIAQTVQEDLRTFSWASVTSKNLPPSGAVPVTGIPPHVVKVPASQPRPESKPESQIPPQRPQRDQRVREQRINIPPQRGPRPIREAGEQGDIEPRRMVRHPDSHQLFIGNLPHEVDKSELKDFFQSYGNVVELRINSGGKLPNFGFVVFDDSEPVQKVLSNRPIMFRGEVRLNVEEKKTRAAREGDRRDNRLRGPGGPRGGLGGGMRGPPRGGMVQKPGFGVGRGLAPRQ
UniProt P67809: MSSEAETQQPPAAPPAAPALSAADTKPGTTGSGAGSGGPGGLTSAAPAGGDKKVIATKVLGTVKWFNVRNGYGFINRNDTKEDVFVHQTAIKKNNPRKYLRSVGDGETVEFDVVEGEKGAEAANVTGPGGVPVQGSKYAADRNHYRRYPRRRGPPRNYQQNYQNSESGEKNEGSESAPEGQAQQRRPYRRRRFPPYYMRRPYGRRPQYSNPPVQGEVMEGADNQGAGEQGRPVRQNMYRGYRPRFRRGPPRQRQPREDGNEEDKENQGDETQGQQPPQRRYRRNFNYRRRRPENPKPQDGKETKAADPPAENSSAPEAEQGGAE

T1: NRBP2 (construct of Supplementary Fig. 1c and 5a, not given) (human) (UniProt Q9NSY0)
T1 sequence: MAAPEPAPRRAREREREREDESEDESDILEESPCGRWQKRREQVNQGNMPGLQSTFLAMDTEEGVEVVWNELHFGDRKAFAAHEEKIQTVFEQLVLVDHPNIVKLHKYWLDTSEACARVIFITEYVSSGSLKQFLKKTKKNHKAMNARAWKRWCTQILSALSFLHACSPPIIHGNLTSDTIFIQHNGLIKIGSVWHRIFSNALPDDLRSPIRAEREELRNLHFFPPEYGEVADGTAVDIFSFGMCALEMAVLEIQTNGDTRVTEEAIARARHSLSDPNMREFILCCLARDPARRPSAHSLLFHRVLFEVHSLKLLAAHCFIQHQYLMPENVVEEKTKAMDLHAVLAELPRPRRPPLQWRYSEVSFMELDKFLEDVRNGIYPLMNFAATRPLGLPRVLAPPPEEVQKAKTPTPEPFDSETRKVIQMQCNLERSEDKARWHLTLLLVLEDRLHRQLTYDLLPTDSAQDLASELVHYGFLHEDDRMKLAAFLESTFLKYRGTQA

T2: Myc-Flag-tagged NRBP2 (human) (UniProt Q9NSY0)
T2 sequence: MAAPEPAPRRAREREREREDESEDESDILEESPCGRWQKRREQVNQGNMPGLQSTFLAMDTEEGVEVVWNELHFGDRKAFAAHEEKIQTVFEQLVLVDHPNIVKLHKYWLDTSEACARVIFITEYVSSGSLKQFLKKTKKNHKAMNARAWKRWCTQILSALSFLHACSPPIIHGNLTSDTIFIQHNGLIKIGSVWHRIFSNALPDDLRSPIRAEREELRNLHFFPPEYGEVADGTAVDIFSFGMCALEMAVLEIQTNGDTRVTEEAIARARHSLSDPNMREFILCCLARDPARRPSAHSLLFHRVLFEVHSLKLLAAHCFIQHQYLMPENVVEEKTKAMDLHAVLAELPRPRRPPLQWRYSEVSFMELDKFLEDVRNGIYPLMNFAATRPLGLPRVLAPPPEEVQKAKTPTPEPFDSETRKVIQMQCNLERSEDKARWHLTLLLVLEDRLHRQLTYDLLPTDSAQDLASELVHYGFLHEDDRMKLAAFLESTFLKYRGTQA


Key:
[1] = target: T1, NRBP2 (construct of Supplementary Fig. 1c and 5a, not given) (human); test: co-IP; Supplementary Fig. 1c; bait, tags and cells not shown
[2] = target: NRBP1 (construct of Supplementary Fig. 1c and 5a, not given) (human) (UniProt Q9UHY1); test: as above
[3] = target: T2, Myc-Flag-tagged NRBP2 (human); test: co-IP; MCF-7 cells transfected with Myc-Flag-NRBP1 or Myc-Flag-NRBP2; lysate incubated with Flag antibody; endogenous ORF1p detected by Western blot
[4] = target: Myc-Flag-tagged NRBP1 (human) (UniProt Q9UHY1); test: as above
[5] = target: Flag-tagged ORF1p (human) (UniProt Q9UN81); test: co-IP; HeLa cells; Flag-tagged ORF1p precipitated, NRBP1-Myc or NRBP2-Myc detected; CHAPS-based buffer; lysate treated with 50 U/mL RNasin or 40 ug/mL RNase A, binding with or without RNA
[6] = target: Flag-NRBP1 (full-length NRBP1) (human) (UniProt Q9UHY1); test: co-IP; HEK293T cells; Flag antibody used to pull down Flag-NRBP1; co-precipitated NRBP1 or NRBP2 variants by blot; CHAPS-based buffer

Molecule | binding [1] | binding [2] | further results
G3BP1 (from UniProt Q13283 1-466) | binds | binds | –
L1 open-reading frame 1 protein (ORF1p), endogenous (from UniProt Q9UN81 1-338) | – | – | binding [3]: binds; binding [4]: binds
NRBP1-Myc (from UniProt Q9UHY1 1-535) | – | – | binding [5]: binds
YBX1 (from UniProt P67809 1-324) | binds | binds | –
NRBP2-Myc (protein, UniProt Q9NSY0 1-501) MAAPEPAPRRAREREREREDESEDESDILEESPCGRWQKRREQVNQGNMPGLQSTFLAMDTEEGVEVVWNELHFGDRKAFAAHEEKIQTVFEQLVLVDHPNIVKLHKYWLDTSEACARVIFITEYVSSGSLKQFLKKTKKNHKAMNARAWKRWCTQILSALSFLHACSPPIIHGNLTSDTIFIQHNGLIKIGSVWHRIFSNALPDDLRSPIRAEREELRNLHFFPPEYGEVADGTAVDIFSFGMCALEMAVLEIQTNGDTRVTEEAIARARHSLSDPNMREFILCCLARDPARRPSAHSLLFHRVLFEVHSLKLLAAHCFIQHQYLMPENVVEEKTKAMDLHAVLAELPRPRRPPLQWRYSEVSFMELDKFLEDVRNGIYPLMNFAATRPLGLPRVLAPPPEEVQKAKTPTPEPFDSETRKVIQMQCNLERSEDKARWHLTLLLVLEDRLHRQLTYDLLPTDSAQDLASELVHYGFLHEDDRMKLAAFLESTFLKYRGTQA | – | – | binding [5]: binds
UPF1 (protein, UniProt Q92900 1-1129) MSVEAYGPSSQTLTFLDTEEAELLGADTQGSEFEFTDFTLPSQTQTPPGGPGGPGGGGAGGPGGAGAGAAAGQLDAQVGPEGILQNGAVDDSVAKTSQLLAELNFEEDEEDTYYTKDLPIHACSYCGIHDPACVVYCNTSKKWFCNGRGNTSGSHIVNHLVRAKCKEVTLHKDGPLGETVLECYNCGCRNVFLLGFIPAKADSVVVLLCRQPCASQSSLKDINWDSSQWQPLIQDRCFLSWLVKIPSEQEQLRARQITAQQINKLEELWKENPSATLEDLEKPGVDEEPQHVLLRYEDAYQYQNIFGPLVKLEADYDKKLKESQTQDNITVRWDLGLNKKRIAYFTLPKTDSGNEDLVIIWLRDMRLMQGDEICLRYKGDLAPLWKGIGHVIKVPDNYGDEIAIELRSSVGAPVEVTHNFQVDFVWKSTSFDRMQSALKTFAVDETSVSGYIYHKLLGHEVEDVIIKCQLPKRFTAQGLPDLNHSQVYAVKTVLQRPLSLIQGPPGTGKTVTSATIVYHLARQGNGPVLVCAPSNIAVDQLTEKIHQTGLKVVRLCAKSREAIDSPVSFLALHNQIRNMDSMPELQKLQQLKDETGELSSADEKRYRALKRTAERELLMNADVICCTCVGAGDPRLAKMQFRSILIDESTQATEPECMVPVVLGAKQLILVGDHCQLGPVVMCKKAAKAGLSQSLFERLVVLGIRPIRLQVQYRMHPALSAFPSNIFYEGSLQNGVTAADRVKKGFDFQWPQPDKPMFFYVTQGQEEIASSGTSYLNRTEAANVEKITTKLLKAGAKPDQIGIITPYEGQRSYLVQYMQFSGSLHTKLYQEVEIASVDAFQGREKDFIILSCVRANEHQGIGFLNDPRRLNVALTRARYGVIIVGNPKALSKQPLWNHLLNYYKEQKVLVEGPLNNLRESLMQFSKPRKLVNTINPGARFMTTAMYDAREAIIPGSVYDRSSQGRPSSMYFQTHDQIGMISAGPSHVAAMNIPIPFNLVMPPMPPPGYFGQANGPAAGRGTPKGKTGRGGRQKNRFGLPGPSQTNLPNSQASQDVASQPFSQGALTQGYISMSQPSQMSQPGLSQPELSQDSYLGDEFKSQIDVALSQDSTYQGERAYQHGGVTGLSQY | binds | binds | –
MOV10 (protein, UniProt Q9HCE1 1-1003) MPSKFSCRQLREAGQCFESFLVVRGLDMETDRERLRTIYNRDFKISFGTPAPGFSSMLYGMKIANLAYVTKTRVRFFRLDRWADVRFPEKRRMKLGSDISKHHKSLLAKIFYDRAEYLHGKHGVDVEVQGPHEARDGQLLIRLDLNRKEVLTLRLRNGGTQSVTLTHLFPLCRTPQFAFYNEDQELPCPLGPGECYELHVHCKTSFVGYFPATVLWELLGPGESGSEGAGTFYIARFLAAVAHSPLAAQLKPMTPFKRTRITGNPVVTNRIEEGERPDRAKGYDLELSMALGTYYPPPRLRQLLPMLLQGTSIFTAPKEIAEIKAQLETALKWRNYEVKLRLLLHLEELQMEHDIRHYDLESVPMTWDPVDQNPRLLTLEVPGVTESRPSVLRGDHLFALLSSETHQEDPITYKGFVHKVELDRVKLSFSMSLLSRFVDGLTFKVNFTFNRQPLRVQHRALELTGRWLLWPMLFPVAPRDVPLLPSDVKLKLYDRSLESNPEQLQAMRHIVTGTTRPAPYIIFGPPGTGKTVTLVEAIKQVVKHLPKAHILACAPSNSGADLLCQRLRVHLPSSIYRLLAPSRDIRMVPEDIKPCCNWDAKKGEYVFPAKKKLQEYRVLITTLITAGRLVSAQFPIDHFTHIFIDEAGHCMEPESLVAIAGLMEVKETGDPGGQLVLAGDPRQLGPVLRSPLTQKHGLGYSLLERLLTYNSLYKKGPDGYDPQFITKLLRNYRSHPTILDIPNQLYYEGELQACADVVDRERFCRWAGLPRQGFPIIFHGVMGKDEREGNSPSFFNPEEAATVTSYLKLLLAPSSKKGKARLSPRSVGVISPYRKQVEKIRYCITKLDRELRGLDDIKDLKVGSVEEFQGQERSVILISTVRSSQSFVQLDLDFNLGFLKNPKRFNVAVTRAKALLIIVGNPLLLGHDPDWKVFLEFCKENGGYTGCPFPAKLDLQQGQNLLQGLSKLSPSTSGPHSHDYLPQEREGEGGLSLQVEPEWRNEL | binds | binds | –
wild-type NRBP2 (full length), co-IP with NRBP1 (protein, UniProt Q9NSY0 1-501) MAAPEPAPRRAREREREREDESEDESDILEESPCGRWQKRREQVNQGNMPGLQSTFLAMDTEEGVEVVWNELHFGDRKAFAAHEEKIQTVFEQLVLVDHPNIVKLHKYWLDTSEACARVIFITEYVSSGSLKQFLKKTKKNHKAMNARAWKRWCTQILSALSFLHACSPPIIHGNLTSDTIFIQHNGLIKIGSVWHRIFSNALPDDLRSPIRAEREELRNLHFFPPEYGEVADGTAVDIFSFGMCALEMAVLEIQTNGDTRVTEEAIARARHSLSDPNMREFILCCLARDPARRPSAHSLLFHRVLFEVHSLKLLAAHCFIQHQYLMPENVVEEKTKAMDLHAVLAELPRPRRPPLQWRYSEVSFMELDKFLEDVRNGIYPLMNFAATRPLGLPRVLAPPPEEVQKAKTPTPEPFDSETRKVIQMQCNLERSEDKARWHLTLLLVLEDRLHRQLTYDLLPTDSAQDLASELVHYGFLHEDDRMKLAAFLESTFLKYRGTQA | – | – | binding [6]: binds
